Experiment: Metabolomics of fetal brain at E14.5
Assay type: in vivo, C57Bl/6J mice
Conditions: E14.5 fetal brain metabolite level; for fold of change ABX/SPF: ANOVA contrast ABX vs SPF; for fold of change GF/ABX: ANOVA contrast GF vs ABX; for fold of change GF/SPF: ANOVA contrast GF vs SPF; for fold of change GF/Sp: ANOVA contrast GF vs Sp; for fold of change Sp/ABX: ANOVA contrast Sp vs ABX; for fold of change Sp/SPF: ANOVA contrast Sp vs SPF

Row | Compound | fold of change ABX/SPF | fold of change GF/ABX | fold of change GF/SPF | fold of change GF/Sp | fold of change Sp/ABX | fold of change Sp/SPF
1 | OC1C(O)C(O)C(O)C(O)C1O (stereo not drawn) [compound 1753] | 0.64 | 0.93 | 0.60 | 0.81 | 1.15 | 0.74
2 | OC1C(O)C(O)C(O)C(O)C1O (stereo not drawn) [compound 1754] | 0.72 | 1.24 | 0.90 | 0.53 | 2.35 | 1.70
3 | C[N+](C)(C)CCO [compound 1782] | 0.83 | 0.86 | 0.72 | 1.03 | 0.84 | 0.70
4 | C[N+](C)(C)CCOP(=O)([O-])O [compound 1783] | 0.95 | 1.02 | 0.97 | 1.05 | 0.97 | 0.92
5 | C[N+](C)(C)CCOP(=O)([O-])OP(=O)(O)OCC1OC(n2ccc(N)nc2=O)C(O)C1O (stereo not drawn) [compound 1784] | 0.66 | 1.18 | 0.77 | 0.82 | 1.43 | 0.94
6 | C[N+](C)(C)CCOP(=O)([O-])OCC(O)CO (stereo not drawn) [compound 1786] | 0.76 | 1.24 | 0.94 | 0.92 | 1.34 | 1.02
7 | NCCOP(=O)(O)O [compound 1788] | 0.82 | 0.98 | 0.80 | 0.91 | 1.08 | 0.88
8 | NCCOP(=O)(O)OP(=O)(O)OCC1OC(n2ccc(N)nc2=O)C(O)C1O (stereo not drawn) [compound 1789] | 0.80 | 1.02 | 0.82 | 0.95 | 1.08 | 0.87
9 | NCCOP(=O)(O)OCC(O)CO (stereo not drawn) [compound 1790] | 0.83 | 1.07 | 0.89 | 0.94 | 1.14 | 0.95
10 | NC(COP(=O)(O)OCC(O)CO)C(=O)O (stereo not drawn) [compound 1791] | 0.81 | 0.93 | 0.75 | 0.91 | 1.02 | 0.83
11 | O=P(O)(OCC(O)CO)OC1C(O)C(O)C(O)C(O)C1O (stereo not drawn) [compound 1792] | 0.87 | 0.84 | 0.74 | 0.88 | 0.96 | 0.84
12 | C[N+](C)(C)[O-] [compound 1793] | 0.08 | 0.48 | 0.04 | 0.10 | 4.61 | 0.38
13 | CCCCCCCCCCCCCCCC(=O)O[C@H](COC(=O)CCCCCCCCCCCCC)COP(=O)([O-])OCC[N+](C)(C)C [compound 1811] | 0.88 | 0.99 | 0.86 | 0.93 | 1.07 | 0.93
14 | CCCCC/C=C\C/C=C\C/C=C\C/C=C\CCCC(=O)O[C@H](COC(=O)CCCCCCCCCCCCC)COP(=O)([O-])OCC[N+](C)(C)C [compound 1815] | 0.78 | 1.03 | 0.80 | 0.98 | 1.05 | 0.82
15 | CCCCCCCCCCCCCCCC(=O)OCC(COP(=O)([O-])OCC[N+](C)(C)C)OC(=O)CCCCCCCCCCCCCCC (stereo not drawn) [compound 1827] | 0.86 | 1.02 | 0.88 | 0.97 | 1.05 | 0.91
16 | CCCCCC/C=C\CCCCCCCC(=O)O[C@H](COC(=O)CCCCCCCCCCCCCCC)COP(=O)([O-])OCC[N+](C)(C)C [compound 1828] | 0.93 | 0.97 | 0.90 | 0.95 | 1.03 | 0.95
17 | CCCCCCCCCCCCCCCCCC(=O)O[C@H](COC(=O)CCCCCCCCCCCCCCC)COP(=O)([O-])OCC[N+](C)(C)C [compound 1829] | 0.73 | 1.07 | 0.79 | 0.91 | 1.18 | 0.87
18 | CCCCCCCC/C=C\CCCCCCCC(=O)O[C@H](COC(=O)CCCCCCCCCCCCCCC)COP(=O)([O-])OCC[N+](C)(C)C [compound 1831] | 0.87 | 1.01 | 0.88 | 0.96 | 1.05 | 0.91
19 | CCCCC/C=C\C/C=C\CCCCCCCC(=O)O[C@H](COC(=O)CCCCCCCCCCCCCCC)COP(=O)([O-])OCC[N+](C)(C)C [compound 1834] | 0.99 | 1.00 | 0.99 | 1.09 | 0.92 | 0.91
20 | CCCCC/C=C\C/C=C\C/C=C\CCCCC(=O)O[C@H](COC(=O)CCCCCCCCCCCCCCC)COP(=O)([O-])OCC[N+](C)(C)C [compound 1837] | 0.93 | 1.04 | 0.96 | 1.16 | 0.89 | 0.83
21 | CC/C=C\C/C=C\C/C=C\CCCCCCCCCC(=O)O[C@H](COC(=O)CCCCCCCCCCCCCCC)COP(=O)([O-])OCC[N+](C)(C)C [compound 1841] | 0.97 | 0.96 | 0.93 | 1.14 | 0.84 | 0.82
22 | CCCCC/C=C\C/C=C\C/C=C\C/C=C\CCCC(=O)O[C@H](COC(=O)CCCCCCCCCCCCCCC)COP(=O)([O-])OCC[N+](C)(C)C [compound 1845] | 0.82 | 1.02 | 0.84 | 0.95 | 1.08 | 0.89
23 | CC/C=C\C/C=C\C/C=C\C/C=C\C/C=C\C/C=C\CCC(=O)O[C@H](COC(=O)CCCCCCCCCCCCCCC)COP(=O)([O-])OCC[N+](C)(C)C [compound 1851] | 0.78 | 0.85 | 0.66 | 0.87 | 0.97 | 0.76
24 | CCCCCCCCCCCCCCCCCC(=O)OCC(COP(=O)([O-])OCC[N+](C)(C)C)OC(=O)CCCCCCCCCCCCCCCCC (stereo not drawn) [compound 1866] | 0.56 | 0.79 | 0.44 | 0.66 | 1.19 | 0.66
25 | CCCCCCCCC=CCCCCCCCC(=O)OC(COC(=O)CCCCCCCCCCCCCCCCC)COP(=O)([O-])OCC[N+](C)(C)C (stereo not drawn) [compound 1867] | 0.84 | 0.93 | 0.79 | 0.90 | 1.04 | 0.88
26 | CCCCCC=CCC=CCCCCCCCC(=O)OC(COC(=O)CCCCCCCCCCCCCCCCC)COP(=O)([O-])OCC[N+](C)(C)C (stereo not drawn) [compound 1870] | 0.94 | 1.05 | 0.99 | 1.16 | 0.90 | 0.85
27 | CCCCC/C=C\C/C=C\C/C=C\C/C=C\CCCC(=O)O[C@H](COC(=O)CCCCCCCCCCCCCCCCC)COP(=O)([O-])OCC[N+](C)(C)C [compound 1878] | 0.82 | 0.93 | 0.77 | 0.90 | 1.04 | 0.86
28 | CC/C=C\C/C=C\C/C=C\C/C=C\C/C=C\C/C=C\CCC(=O)O[C@H](COC(=O)CCCCCCCCCCCCCCCCC)COP(=O)([O-])OCC[N+](C)(C)C [compound 1884] | 0.83 | 0.84 | 0.69 | 0.88 | 0.95 | 0.79
29 | CCCCCCCCC=CCCCCCCCC(=O)OCC(COP(=O)([O-])OCC[N+](C)(C)C)OC(=O)CCCCCCCC=CCCCCCCCC (stereo not drawn) [compound 1889] | 1.01 | 0.90 | 0.91 | 0.95 | 0.95 | 0.97
30 | CCCCC/C=C\C/C=C\CCCCCCCC(=O)O[C@H](COC(=O)CCCCCCC/C=C\CCCCCCCC)COP(=O)([O-])OCC[N+](C)(C)C [compound 1892] | 1.11 | 1.06 | 1.17 | 1.46 | 0.73 | 0.81

Source: US12491217B2, “Compositions and methods for promoting healthy neural development in an unborn baby” (The Regents of the University of California, priority 2019, dated 2025)
